PubChem BioAssay AID504764 | Drosophila RNAi Screening Center | 2011
In all, the deposit lists about 22,000 reagents; shown is an unselected part of those with a known target gene and a result. Over the whole deposit, 403 (1.9%) were called active. 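Unnormalised raw counts per well; ratio z-scores behind the hit calls and whether each hit raises or lowers signal are not deposited.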 The numbers tell different reagents against one gene apart. Reagent sequences are not shown. Not stated in the record: the amount of reagent.

- Purpose: 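Genes whose knock-down alters Notch-dependent transcription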 (primary screen)
- System: Drosophila Kc167 cells
- Reagent: long dsRNA against Drosophila genes
- Time to read-out: about 5 days (4 days dsRNA, then 24 h after transfection)
- Treatment: transfection of constitutively active membrane-tethered Notch lacking the extracellular domain, read 24 h later
- Measured: 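Firefly luciferase from an E(spl)m3 reporter with active Notch, plus control-promoter and uninduced reporter wells for normalisation; unnormalised counts, duplicate wells a and b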
- Scale: induced reporter light, run 1, well a and induced reporter light, run 1, well b: higher = more light from the Notch target reporter with active Notch; control promoter light, run 1, well a and control promoter light, run 1, well b: higher = more light from the viral control promoter (cell number, transfection, viability); uninduced reporter light, run 1, well a: higher = more light from the Notch target reporter without active Notch
- Call rule: 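Hit if the duplicate-averaged log2 ratio of induced to control-promoter light gives a plate-wise z beyond ±2, or induced to uninduced beyond ±1.8; weak-control or discordant-duplicate wells dropped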
- Meaning of the calls: active = modifier hit (raised or lowered Notch signal); inactive = not a hit

Gene	dsRNA no.	induced reporter light, run 1, well a	induced reporter light, run 1, well b	control promoter light, run 1, well a	control promoter light, run 1, well b	uninduced reporter light, run 1, well a	call
htl (heartless)	1	1.40e5	1.77e5	2.07e5	1.91e5	16510	inactive
Sf3b2 (Splicing factor 3b subunit 2)	1	18445	13375	21480	22570	1210	inactive
Sec61alpha (Sec61 alpha subunit)	1	2.19e5	2.69e5	2.31e5	2.47e5	15370	inactive
FMRFa (FMRFamide)	1	1.75e5	1.75e5	2.50e5	2.58e5	17175	inactive
Ranbp16	1	89840	1.01e5	1.31e5	87495	11850	inactive
Nplp2 (Neuropeptide-like precursor 2)	1	1.08e5	1.14e5	1.76e5	1.61e5	7185	inactive
Or67a (Odorant receptor 67a)	1	1.48e5	1.37e5	1.63e5	1.92e5	7785	inactive
CG3309	1	1.56e5	1.76e5	2.96e5	3.55e5	11860	inactive
DUBAI (Deubiquitinating apoptotic inhibitor)	1	1.39e5	1.24e5	1.41e5	1.29e5	13195	inactive
egl (egalitarian)	1	1.65e5	1.32e5	1.63e5	1.44e5	9730	inactive
mus101 (mutagen-sensitive 101)	1	1.01e5	85060	72425	81020	5755	active
Bka (Bekka)	1	1.27e5	1.51e5	80285	1.09e5	17020	inactive
CG4982	1	1.32e5	1.16e5	1.81e5	1.60e5	10365	inactive
Mgat4b	1	2.14e5	1.73e5	3.27e5	2.61e5	10765	inactive
CG32815	1	1.01e5	1.24e5	1.80e5	1.84e5	7620	inactive
Pgant5 (Polypeptide N-Acetylgalactosaminyltransferase 5)	1	1.58e5	1.50e5	1.99e5	2.25e5	11935	active
CG8860	1	87465	95870	96875	92545	9705	inactive
Pbp95 (PSEA-binding protein 95kD)	1	58970	68955	72680	55250	4105	inactive
CtsL2 (Cathepsin L2)	1	1.20e5	1.38e5	1.16e5	1.02e5	8870	inactive
CG12795	1	2.05e5	1.89e5	2.06e5	2.24e5	13795	inactive
CG3323	1	1.12e5	1.31e5	1.69e5	2.59e5	9460	inactive
CCT3 (Chaperonin containing TCP1 subunit 3)	1	1.91e5	1.79e5	2.29e5	2.32e5	14815	inactive
Ldaf1 (Lipid droplet assembly factor 1)	1	1.77e5	1.66e5	2.37e5	2.18e5	12235	inactive
Rpt5 (Regulatory particle triple-A ATPase 5)	1	38820	30420	26405	22080	1788	active
CG3650	1	1.87e5	1.53e5	1.76e5	1.28e5	13188	inactive
RpL21 (Ribosomal protein L21)	1	3850	5080	4405	5150	338	inactive
Ubc6 (Ubiquitin conjugating enzyme 6)	1	82220	70730	62705	60520	4940	inactive
PLCXD	1	1.42e5	1.41e5	1.47e5	1.66e5	13385	inactive
tna (tonalli)	1	1.96e5	1.91e5	2.27e5	1.84e5	12515	inactive
tna (tonalli)	2	88210	1.00e5	1.28e5	1.33e5	7632	inactive
Alp10 (Alkaline phosphatase 10)	1	1.89e5	2.21e5	3.20e5	2.30e5	10780	inactive
CG3770	1	2.42e5	2.28e5	1.85e5	1.92e5	18800	inactive
CG1738	1	1.20e5	1.32e5	2.03e5	2.14e5	8192	inactive
Mgat4a	1	1.81e5	1.55e5	2.23e5	2.32e5	16455	inactive
Mgat4a	2	1.97e5	2.27e5	2.32e5	1.84e5	12655	inactive

Already shown: an excerpt of the list.
Gene	dsRNA no.	induced reporter light, run 1, well a	induced reporter light, run 1, well b	control promoter light, run 1, well a	control promoter light, run 1, well b	uninduced reporter light, run 1, well a	call
Mgat4b	1	2.14e5	1.73e5	3.27e5	2.61e5	10765	inactive
CG32815	1	1.01e5	1.24e5	1.80e5	1.84e5	7620	inactive
